# Test results published in paper PMC8473878.
# Chains of the proteins cited; added tags and fusions are not shown. Residues count along the entry.
# UniProt Q14240: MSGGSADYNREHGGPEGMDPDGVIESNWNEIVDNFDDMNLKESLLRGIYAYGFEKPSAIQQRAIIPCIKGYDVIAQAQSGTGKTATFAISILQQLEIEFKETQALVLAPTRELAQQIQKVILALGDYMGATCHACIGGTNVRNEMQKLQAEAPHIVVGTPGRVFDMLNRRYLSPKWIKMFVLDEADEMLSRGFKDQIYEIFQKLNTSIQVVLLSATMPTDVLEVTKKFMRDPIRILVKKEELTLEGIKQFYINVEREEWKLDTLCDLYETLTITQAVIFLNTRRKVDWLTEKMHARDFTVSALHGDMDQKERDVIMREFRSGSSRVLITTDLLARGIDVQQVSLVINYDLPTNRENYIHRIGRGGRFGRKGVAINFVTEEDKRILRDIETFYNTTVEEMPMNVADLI
# UniProt P30530, residues 26-894: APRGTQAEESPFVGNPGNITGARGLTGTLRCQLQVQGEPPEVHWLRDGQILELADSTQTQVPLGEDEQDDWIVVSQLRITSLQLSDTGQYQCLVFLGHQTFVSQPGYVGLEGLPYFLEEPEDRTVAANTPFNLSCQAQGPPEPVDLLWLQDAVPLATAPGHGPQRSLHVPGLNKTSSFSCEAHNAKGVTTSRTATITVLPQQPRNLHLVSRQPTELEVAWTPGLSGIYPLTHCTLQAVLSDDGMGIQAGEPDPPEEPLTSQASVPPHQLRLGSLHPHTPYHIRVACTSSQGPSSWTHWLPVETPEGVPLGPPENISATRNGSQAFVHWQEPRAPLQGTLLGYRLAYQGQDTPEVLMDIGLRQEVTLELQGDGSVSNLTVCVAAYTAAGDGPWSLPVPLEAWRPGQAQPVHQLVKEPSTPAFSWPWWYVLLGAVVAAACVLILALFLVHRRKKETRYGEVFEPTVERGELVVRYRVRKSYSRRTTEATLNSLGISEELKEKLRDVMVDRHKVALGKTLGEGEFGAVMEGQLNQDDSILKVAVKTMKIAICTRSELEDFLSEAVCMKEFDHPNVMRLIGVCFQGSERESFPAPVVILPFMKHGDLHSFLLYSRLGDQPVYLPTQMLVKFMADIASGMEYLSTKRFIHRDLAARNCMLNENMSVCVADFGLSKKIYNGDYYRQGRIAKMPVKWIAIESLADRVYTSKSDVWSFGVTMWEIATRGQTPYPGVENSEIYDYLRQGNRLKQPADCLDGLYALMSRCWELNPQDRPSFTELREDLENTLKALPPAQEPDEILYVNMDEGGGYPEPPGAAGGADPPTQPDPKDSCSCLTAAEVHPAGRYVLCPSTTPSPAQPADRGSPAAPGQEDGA
# UniProt P10909, residues 23-449: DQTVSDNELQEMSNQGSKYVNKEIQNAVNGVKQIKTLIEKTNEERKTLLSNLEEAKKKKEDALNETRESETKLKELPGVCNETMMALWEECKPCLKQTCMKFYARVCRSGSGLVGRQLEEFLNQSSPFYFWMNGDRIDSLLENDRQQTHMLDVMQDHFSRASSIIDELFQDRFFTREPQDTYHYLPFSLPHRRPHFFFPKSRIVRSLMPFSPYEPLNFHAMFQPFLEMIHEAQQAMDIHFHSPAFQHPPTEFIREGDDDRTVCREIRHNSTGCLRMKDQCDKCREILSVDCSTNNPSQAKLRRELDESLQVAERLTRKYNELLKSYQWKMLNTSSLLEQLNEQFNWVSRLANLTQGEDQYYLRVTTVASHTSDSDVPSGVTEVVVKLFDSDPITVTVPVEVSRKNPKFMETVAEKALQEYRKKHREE
# These are yes or no findings as the source states them, for the method shown. In cells and extracts the contact can be indirect. These calls come from enrichment with a bait or labelling near it, and not all partners need be listed. Tags and fused reporters may be left off the sequences shown.
# Target: T1, 3×FLAG-fused B4GALNT2 (β1,4-N-acetylgalactosaminyltransferase 2) (UniProt Q8NHY0)
# T1 sequence: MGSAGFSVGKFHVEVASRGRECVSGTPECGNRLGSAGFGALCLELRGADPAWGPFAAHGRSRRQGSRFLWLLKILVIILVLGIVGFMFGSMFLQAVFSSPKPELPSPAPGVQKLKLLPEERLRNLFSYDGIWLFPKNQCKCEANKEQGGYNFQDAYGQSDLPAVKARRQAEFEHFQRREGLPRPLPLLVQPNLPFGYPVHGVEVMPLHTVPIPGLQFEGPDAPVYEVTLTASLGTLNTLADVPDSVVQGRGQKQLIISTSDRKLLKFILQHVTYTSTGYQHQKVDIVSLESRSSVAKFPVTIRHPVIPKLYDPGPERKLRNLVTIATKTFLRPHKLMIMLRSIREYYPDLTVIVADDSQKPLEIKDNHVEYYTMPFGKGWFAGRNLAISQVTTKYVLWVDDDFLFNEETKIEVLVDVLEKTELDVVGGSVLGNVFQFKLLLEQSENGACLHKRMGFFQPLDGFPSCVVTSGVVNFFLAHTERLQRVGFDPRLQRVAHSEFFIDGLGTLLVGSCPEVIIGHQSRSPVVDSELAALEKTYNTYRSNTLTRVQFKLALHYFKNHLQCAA
# Test: affinity purification with mass spectrometry; Anti-Flag Co-IP from cell proteins of MDA-MB-231 stably overexpressing 3×FLAG-B4GALNT2 (OE) against control stable cells (NC); gel bands cut, LC-MS/MS (Q Exactive, Mascot, FDR<0.01)
row,binding,Substance
1,binds,EIF4A2 (from UniProt Q14240 1-407)
2,binds,AXL (from UniProt P30530 26-894) (receptor)
3,binds,CLU (from UniProt P10909 23-449)
